Laboratory results published in patent US7297505B2, “Use of MDCK cell line to predict corneal penetration of drugs” (Alcon, Inc., priority 2004, dated 2007).

Tested on: MDCK(MDR) monolayers
Conditions: MDCK-MDR1
Text: The present invention is directed to the use of a new in vitro model for evaluating the ability of a drug molecule to penetrate the cornea. The model involves the use of MDCK cell permeability values to predict the ability of drug molecules to penetrate the cornea. The MDCK permeability values of drug molecules can be determined by means of known methods, such as the methods described in the following scientific articles: • 1. Horio, M, Pastan, I, Gottesman, M M, and Handler, J S. Transepithelial transport of vinblastine by kidney-derived cell lines. Application of a new kinetic model to estimate in situ Km of the pump. […] Pan, B F, Dutt, A, and Nelson, J A. Enhanced transepithelial flux of cimetidine by Madin-Darby canine kidney cells overexpressing human P-glycoprotein. […]
In vitro MDCK cell permeability. Permeability and transport studies were conducted and the data were analyzed at Absorption Systems, Exton, Pa., using methods previously described.^12,13 MDCK(MDR) monolayers were grown to confluence on collagen-coated, microporous, polycarbonate membranes in 12-well Costar Transwell plates. To ensure monolayer integrity, the trans epithelial electrical resistance (TEER) was measured. […] Lucifer Yellow permeability was measured for each monolayer after the experiment, to ensure that the cell monolayer integrity and viability was not compromised by the test article. […]

Compound: CC(C)NCC(O)COc1ccc(CC(N)=O)cc1 (stereo not shown) [Atenolol]
- MDCK^2: 1.96
